Assay results published in publication PMC9788671.
These are yes or no findings as the source states them, for the method shown. In cells and extracts the contact can be indirect. Here binding means that the protein was enriched with, or labelled near, the bait; the list need not be complete.

Chains of the proteins cited; added tags and fusions are not shown.
UniProt Q9NZV8: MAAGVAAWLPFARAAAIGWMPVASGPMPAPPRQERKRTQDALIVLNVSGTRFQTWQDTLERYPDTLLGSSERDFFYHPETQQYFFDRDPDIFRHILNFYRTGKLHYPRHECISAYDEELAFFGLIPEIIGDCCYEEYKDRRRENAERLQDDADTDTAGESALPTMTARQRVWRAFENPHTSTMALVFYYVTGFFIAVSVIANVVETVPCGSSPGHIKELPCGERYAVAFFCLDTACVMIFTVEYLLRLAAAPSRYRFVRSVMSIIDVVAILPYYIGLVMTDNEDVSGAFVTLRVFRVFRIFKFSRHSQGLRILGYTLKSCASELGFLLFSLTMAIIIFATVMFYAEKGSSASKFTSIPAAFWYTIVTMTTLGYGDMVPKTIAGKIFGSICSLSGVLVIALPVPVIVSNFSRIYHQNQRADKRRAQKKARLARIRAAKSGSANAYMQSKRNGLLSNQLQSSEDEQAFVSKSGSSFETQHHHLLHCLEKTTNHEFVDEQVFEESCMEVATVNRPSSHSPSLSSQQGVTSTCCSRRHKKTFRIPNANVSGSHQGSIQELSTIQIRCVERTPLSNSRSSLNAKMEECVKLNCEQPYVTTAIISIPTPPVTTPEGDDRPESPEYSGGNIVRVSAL

B1: Numb (protein, UniProt Q2LC84 1-652)
chain: MNKLRQSFRRKKDVYVPEASRPHQWQTDEEGVRTGKCSFPVKYLGHVEVDESRGMHICEDAVKRLKAERKFFKGFFGKTGKKAVKAVLWVSADGLRVVDEKTKDLIVDQTIEKVSFCAPDRNFDRAFSYICRDGTTRRWICHCFMAVKDTGERLSHAVGCAFAACLERKQKREKECGVTATFDASRTTFTREGSFRVTTATEQAEREEIMKQLQDAKKAETDKTVGPSVAPGNSAPSPSSPTSPTLDPTASLEMNNPHAIPRRHAPIEQLARQGSFRGFPALSQKMSPFKRQLSLRINELPSTMQRKTDFPIKNTVPEVEGEAESISSLCSQITSAFSTPCEDPFSSAPMTKPVTLVAPQSPVLQANGTDSALHVLTAKPASTALAPVAMPVRETNPWAHAPDAANKEIAAIHSGTEWGQSSGAASPGLFQAGHRRTPSEADRWLEEVSKSVRAQQPQASAAPLQPVLQPPPPAAIAPPAPPFQGHAFLTSQPVPVGVVPPLQPAFVSTQSYPVANGMPYPASNVPVVGITPSQMVANVFGTAGHPQATHPHQSPSLAKQQTFPQYETSSATTSPFFKPSAQHLNGSAAFNGVDNSGLVSGNRPAQVPPGTCPVDPFEAQWAALESKPKQRTNPSPTNPFSSDAQKAFEIEL
B2: Vac14 (protein, UniProt Q80W92 1-783)
chain: MNPEKDFAPLTPNIVRALNDKLYEKRKVAALEIEKLVRDFVAQNNTVQIKHVIQTLSQEFALSQHPHSRKGGLIGLAACSIALGKDSGLYLKELIEPVLTCFNDADSRLRYYACEALYNIVKVARGAVLPHFNVLFDGLSKLAADPDPNVKSGSELLDRLLKDIVTESSKFDLVGFIPLLRERIYSNNQYARQFIISWILVLVSVPDINLLDYLPEILDGLFQILGDNGKEIRKMCEVVLGEFLKEIKKNPSSVKFAEMANILVIHCQTTDDLIQLTAMCWMREFIQLAGRVMLPYSSGILTAVLPCLAYDDRKKSIKEVANVCNQSLMKLVTPEDDEPDEPKSVAQKQTEPNPEDSLPKQEGTASGGASGPCDSSFGSGISVFTSASTDRAPVTLHLDGIVQVLNCHLSDTTIGMMTRIAVLKWLYHLYIKTPRKMFRHTDSLFPILLQTLSDESDEVVLKDLEVLAEIASSPAGQTDDPGAPDGPDLQVNHSELQVPTSGRANLLNPPNTKGLECSPSTPTMNSYFYKFMINLLQTFSSERKLLEARGPFIIRQLCLLLNAENIFHSMADILLREEDLKFASTMVHTLNTILLTSTELFQLRNQLKDLKTLESQNLFCCLYRSWCHNPVTTVSLCFLTQNYRHAYDLIQKFGDLEVTVDFLTEVDKLVQLIECPIFTYLRLQLLDVKNNPYLMKALYGLLMLLPQSSAFQLLSHRLQCVPNPELLQTEDCLKAAPKSQKGDSPSIDYTELLQHFEKVQKQHLEVRHQRSGRGDHLDRRVVL
B3: Ncdn (protein, UniProt O35095 1-729)
chain: MSCCDLAAAGQLGKAGIMASDCEPALNQAESRNPTLERYLGALREAKNDSEQFAALLLVTKAVKAGDIDAKTRRRIFDAVGFTFPNRLLTTKEAPDGCPDHVLRALGVALLACFCSDPELASHPQVLNKIPILCTFLTARGDPDDAARRSMIDDTYQCLTAVAGTPRGPRHLIAGGTVSALCQAYLGHGYGFDQALALLVGLLAAAETQCWKEAEPDLLAVLRGLSEDFQRAEDASKFELCQLLPLFLPPTTVPPECHRDLQAGLARILGSKLSSWQRNPALKLAARLAHACGSDWIPVGSSGSKFLALLVNLACVEVRLALEETGTEVKEDVVTACYALMELGIQECTRCEQSLLKEPQKVQLVSIMKEAIGAVIHYLLRVGPEKQKEPFVFASVRILGAWLAEETSSLRKEVCQLLPFLVRYAKTLYEEAEEASDISQQVANLAISPTTPGPAWPGDALRLLLPGWCHLTVEDGPREILIKEGAPSLLCKYFLQQWELTSPGHDTSVLPDSVEIGLQTCCHIFLNLVVTAPGLIKRDACFTSLMNTLMTSLPSLVQQQGRLLLAANVATLGLLMARLLSTSPALQGTPASRGFFAAAILFLSQSHVARATPGSDQAVLALSPDYEGIWADLQELWFLGMQAFTGCVPLLPWLAPAALRSRWPQELLQLLGSVSPNSVKPEMVAAYQGVLVELARANRLCREAMRLQAGEETASHYRMAALEQCLSEP
B4: Bag5 (protein, UniProt Q5QJC9 1-447)
chain: MDMGNQHPSISRLQEIQREVKSIEQQVVGFSGLSDDKNYKRLERILTKQLFEIDSVDTEGKGDIQQARKRAAQDTERLLKELEQNANHPHRIEIKNIFQEAQALVKEKTVPFYSGSNCVTSEFEEAIQDIILRLTHVKTGGKISLRKARYHTLTKICAVQEIIEDCVRKQPSLPLSEDVHPSVAKINSVMCEVNKARGTLIALLMGVDSSETCRHLSCVLSGLMADLDALDVCGRTEIRNYRREVVEDINKLLKYLDLEEEADNTHAFDLGQNHSIIKIENVLKRMREMKNELLQAQSPPELYLRSKTELQGLIGQLDEVSLEKNPCIREARRRAVIEVQTLITYLDLKEALEKRKLFPCEETPPHKAVWNVLGNLSEIQGEVLSFGGNRTDKNYIRLEELLTKQLLTLDAVDPLGEEKCKAARKQAVKLAQNILSYLDMKSDEWEY
B5: Canx (protein, UniProt P35565 21-591)
chain: HDGHDDDMIDIEDDLDDVIEEVEDSKSKSDTSTPPSPKVTYKAPVPTGEVYFADSFDRGSLSGWILSKAKKDDTDDEIAKYDGKWEVDEMKETKLPGDKGLVLMSRAKHHAISAKLNKPFLFDTKPLIVQYEVNFQNGIECGGAYVKLLSKTSELNLDQFHDKTPYTIMFGPDKCGEDYKLHFIFRHKNPKTGVYEEKHAKRPDADLKTYFTDKKTHLYTLILNPDNSFEILVDQSVVNSGNLLNDMTPPVNPSREIEDPEDRKPEDWDERPKIADPDAVKPDDWDEDAPSKIPDEEATKPEGWLDDEPEYIPDPDAEKPEDWDEDMDGEWEAPQIANPKCESAPGCGVWQRPMIDNPNYKGKWKPPMIDNPNYQGIWKPRKIPNPDFFEDLEPFRMTPFSAIGLELWSMTSDIFFDNFIISGDRRVVDDWANDGWGLKKAADGAAEPGVVGQMLEAAEERPWLWVVYILTVALPVFLVILFCCSGKKQSNAMEYKKTDAPQPDVKDEEGKEEEKNKGDEEEEEEKLEEKQKSDAEEDGGTGSQDEEDSKPKAEEDEILNRSPRNRKPRRE
B6: Dclk2 (protein, UniProt Q5MPA9 1-767)
chain: MASTRSIELEHFEERDKRPRPGSRRGAPSSSGGSSISGPKGNGLIPSPAHSAHCSFYRTRTLQALSSEKKAKKARFYRNGDRYFKGLVFAISSDRFRSFDALLIELTRSLSDNVNLPQGVRTIYTVDGSRKVTSLDELLEGESYVCASNEPFRKVDYTKNVNPNWSVNIKGGTTRTLAVASAKSEVKESKDFIKPKLVTVIRSGVKPRKAVRILLNKKTAHSFEQVLTDITEAIKLDSGVVKRLCTLDGKQVTCLQDFFGDDDVFIACGPEKYRYAQDDFVLDHSECRVLKSSYSRASAAKYSGSRSPGLSRRSKSPASVKRAGHSSAYSTAKSPVNGTPSSQLSTPKSTKSSSSSPTSPGSFRGLKQISAQGRSSSNVNGGPELDRCMSPEGVNGNRCSESFTLLEKYRIGKVIGDGNFAVVKECMDRSTGKEFALKIIDKAKCCGKEHLIENEVSILRRVKHPNIIMLVEEMETTTELFLVMELVKGGDLFDAITSSTKYTERDGSAMVYNLASALRYLHGLSIVHRDIKPENLLVCEYPDGTKSLKLGDFGLATVVEGPLYTVCGTPTYVAPEIIAETGYGLKVDVWAAGVITYILLCGFPPFRSENNLQEDLFDQILAGKLEFPAPYWDNITDSAKELISQMLQVNVEARCTAGEILSHPWVSDDASQENNMQAEVTGKLKQHFNNALPKQNSTTTGVSVIMNTALDKEGQVFCSKHCRDSSKSSREQTSAREAPPPPESPRPPGPPATSGCDPAGTWRRHRD
B7: Tomm70a (protein, UniProt Q75Q39 1-610)
chain: MAASKPVEAAMAAAAAPASGNGVGSSGGTAAPGSGAGTLPRWHVALAIGAPLLLGAGAMYLWSRRRRRREAGGRGDASGLKRNSERKTPEGRASPALGSGPDGSGDSLEMSSLDRAQAAKNKGNKYFKAGKYEQAIQCYTEAISLCPTEKNADLSTFYQNRAAAFEQLQKWKEVAQDCTKAVELNPKYVKALFRRAKAHEKLDNKKECLEDVTAVCILEGFQNEQSMLLADKVLKLLGKENAKEKYKNREPLMPSPQFIKSYFSSFTDDIISQPMLKGEKSDEDKDKEGEALEVKENSGYLKAKQYMEEENYDKIISECSKEIDAQGKYMAEALLLRATFYLLIGSANAAKPDLDKVISLKEANVKLRANALIKRGTMCMQQQQPMLSTQDFNMAAEIDPMNSDVYHHRGQLKILLDLVEEAVADFDACIRLRPKFALAQAQKCFALYRQAYTANNSSQVQAAMKGFEEVIKKFPRCAEGYALYAQALTDQQQFGKADEMYDKCIDLEPDNATTYVHKGLLQLQWKQDLDKGLELISKAIEIDNKCDFAYETMGTIEVQRGNMEKAIDMFNKAINLAKSEMEMAHLYSLCDAAHAQTEVAKKYGLKPPTL
B8: Mccc2 (protein, UniProt Q5XIT9 23-563)
chain: YHGDAVARLGTQPDSGSSTYQENYEQMKALVNQLHERAQYVRLGGSEKARARHTSRGKLLPRDRIDNLIDPGSPFLEFSQFAGYKLYGEEEVPAGGIITGIGRVSGVECMIVANDATVKGGTYYPVTVKKHVRAQEIALQNRLPCIYLVDSGGANLPRQADTFPDRDHFGRIFYNQAIMSSKNITQIAVVMGSCTAGGAYVPAMADENIIVQRQGTIFLAGPPLVKAATGEEVSAEDLGGADLHCRRSGVTDHYALDDHHALHLTRKVVRSLNYQKKLDVTVEPSEEPLFPADELYGIVGANLKRSFDVREVIARIVDGSRFNEFKALYGDTLVTGFARIFGYPVGIIGNNGVLFSESAKKGAHFVQLCCQRNIPLLFLQNITGFMVGKDYEAEGIAKDGAKMVAAVSCAKVPKITVIIGGSYGAGNYGMCGRAYSPRFLYMWPNARISVMGGEQAATVLATVARDQRAREGKQFSSAEEAALKEPIIKRFEEEGNPYYSSARLWDDGIIDPVDTRLVLGLSISAALNAPIQRTDFGIFRM
B9: Aldoa (protein, UniProt P05065 1-364)
chain: MPHPYPALTPEQKKELADIAHRIVAPGKGILAADESTGSIAKRLQSIGTENTEENRRFYRQLLLTADDRVNPCIGGVILFHETLYQKADDGRPFPQVIKSKGGVVGIKVDKGVVPLAGTNGETTTQGLDGLSERCAQYKKDGADFAKWRCVLKIGEHTPSSLAIMENANVLARYASICQQNGIVPIVEPEILPDGDHDLKRCQYVTEKVLAAVYKALSDHHVYLEGTLLKPNMVTPGHACTQKFSNEEIAMATVTALRRTVPPAVPGVTFLSGGQSEEEASINLNAINKCPLLKPWALTFSYGRALQASALKAWGGKKENLKAAQEEYIKRALANSLACQGKYTPSGQSGAAASESLFISNHAY
B10: Hadhb (protein, UniProt Q60587 35-475)
chain: SAPAVQTKSKKTLAKPNLKNIVVVEGVRIPFLLSGTSYKDLMPHDLARAALSGLLYRTNIPKDVVDYIIFGTVIQEVKTSNVAREAALGAGFSDKTPAHTVTMACISSNQAMTTAVGLIASGQCDVVVAGGVELMSDVPIRHSRNMRKMMLDLNKAKTLAQRLSLLTKFRLNFLSPELPAVAEFSTNETMGHSADRLAAAFAVSRMEQDKYALRSHSLAKKAQDEGHLSDIVPFKVPGKDTVSKDNGIRPSSLEQMAKLKPAFIKPYGTVTAANSSFLTDGASAMLIMSEDRALAMGYKPKAYLRDFIYVSQDPKDQLLLGPTYATPKVLEKAGLTMNDIDAFEFHEAFSGQILANFKAMDSDWFAQNYMGRKTKVGAPPLEKFNIWGGSLSLGHPFGATGCRLVMAAANRLRKDGGQYALVAACAAGGQGHAMIVEAYPK

Molecular target: TAP-Kv4.2 (human) (UniProt Q9NZV8)
Assay: affinity purification with mass spectrometry; TAP-Kv4.2 expressed by lentivirus in rat hippocampal neurons, harvested at DIV14; weak lysis buffer of the kit (0.1% NP-40); streptavidin resin, then calmodulin resin; gel cut into high and low molecular weight fragments; no MS of the control sample

Row | binding | Binder
1 | binds | B1
2 | binds | B2
3 | binds | B3
4 | binds | B4
5 | binds | B5
6 | binds | B6
7 | binds | B7
8 | binds | B8
9 | binds | B9
10 | binds | B10
